The values that follow come from paper PMC9144814.

Amino acid sequences for entries named in this document (tags omitted). A change or cut given only in a name is not applied to a line headed by its entry. Chains listed by the source or under a name are the forms on record and can include a tag or linker.
UniProt Q01371: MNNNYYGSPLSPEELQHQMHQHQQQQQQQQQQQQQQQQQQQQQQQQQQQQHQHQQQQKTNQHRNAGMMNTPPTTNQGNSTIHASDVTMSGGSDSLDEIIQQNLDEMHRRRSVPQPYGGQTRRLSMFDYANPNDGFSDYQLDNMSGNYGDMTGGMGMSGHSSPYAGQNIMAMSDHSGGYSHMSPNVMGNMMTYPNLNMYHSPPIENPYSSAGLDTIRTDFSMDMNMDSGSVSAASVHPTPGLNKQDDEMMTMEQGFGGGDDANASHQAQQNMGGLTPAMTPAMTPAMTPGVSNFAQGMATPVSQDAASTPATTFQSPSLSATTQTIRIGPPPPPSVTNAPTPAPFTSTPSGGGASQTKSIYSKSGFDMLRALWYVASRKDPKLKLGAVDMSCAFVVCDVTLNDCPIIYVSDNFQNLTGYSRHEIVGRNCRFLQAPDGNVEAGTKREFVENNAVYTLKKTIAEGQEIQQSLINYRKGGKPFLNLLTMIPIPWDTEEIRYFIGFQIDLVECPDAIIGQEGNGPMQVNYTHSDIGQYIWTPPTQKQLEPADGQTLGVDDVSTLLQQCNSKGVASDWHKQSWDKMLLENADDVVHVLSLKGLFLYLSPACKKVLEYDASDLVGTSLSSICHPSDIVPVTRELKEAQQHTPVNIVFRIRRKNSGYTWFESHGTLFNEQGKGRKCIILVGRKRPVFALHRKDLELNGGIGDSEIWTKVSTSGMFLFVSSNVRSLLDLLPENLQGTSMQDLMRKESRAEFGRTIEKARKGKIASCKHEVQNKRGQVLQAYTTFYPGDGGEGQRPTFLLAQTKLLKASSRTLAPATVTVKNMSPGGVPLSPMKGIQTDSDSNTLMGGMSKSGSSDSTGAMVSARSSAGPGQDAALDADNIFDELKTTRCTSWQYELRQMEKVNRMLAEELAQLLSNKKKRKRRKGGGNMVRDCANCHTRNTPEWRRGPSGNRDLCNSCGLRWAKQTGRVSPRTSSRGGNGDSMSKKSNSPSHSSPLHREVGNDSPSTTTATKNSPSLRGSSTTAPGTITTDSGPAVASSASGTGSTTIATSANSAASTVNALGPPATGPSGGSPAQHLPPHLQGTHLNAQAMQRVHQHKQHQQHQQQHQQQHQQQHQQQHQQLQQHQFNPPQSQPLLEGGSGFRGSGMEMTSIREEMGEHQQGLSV
Photoreceptor VVD (VIVID) from N. crassa (component of the FUN-LOV optogenetic switch) (Q9C3Y6, form named): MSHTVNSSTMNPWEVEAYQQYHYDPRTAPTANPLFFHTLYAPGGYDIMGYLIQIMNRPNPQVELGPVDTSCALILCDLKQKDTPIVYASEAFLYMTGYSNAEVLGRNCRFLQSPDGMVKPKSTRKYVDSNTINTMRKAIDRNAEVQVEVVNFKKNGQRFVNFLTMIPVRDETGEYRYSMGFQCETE

These are yes or no findings as the source states them, for the method shown. For part of these data: A result given as binding can be weak or reduced; the word gives no strength.

For assay [1], the target named is LOV domain of WC-1 from N. crassa (component of the FUN-LOV optogenetic switch) (N. crassa) (UniProt Q01371). Description: two-hybrid; Gal4-DBD fusions (BcWCL1 variants) and Gal4-AD fusions (BcWCL2 variants) in S. cerevisiae BY4741 gal4∆ gal80∆; destabilized luciferase reporter under P5XGAL1; luminescence over 24 h at 30 °C; single blue-light pulse (BLP) of 2 h, 466 nm, 20 µmol m^2 s^−1.

Assay [2] shares this target. Description: two-hybrid; Gal4-DBD fusions (BcWCL1 variants) and Gal4-AD fusions (BcWCL2 variants) in S. cerevisiae BY4741 gal4∆ gal80∆; destabilized luciferase reporter under P5XGAL1; luminescence every 10 min for 24 h at 30 °C; constant darkness (DD).
The target is the same in assay [3]. Description: two-hybrid; Gal4-DBD fusions (BcWCL1 variants) and Gal4-AD fusions (BcWCL2 variants) in S. cerevisiae BY4741 gal4∆ gal80∆; destabilized luciferase reporter under P5XGAL1; luminescence over 24 h at 30 °C; constant blue light (BL), 466 nm, 20 µmol m^2 s^−1. In general terms: A reporter such as luciferase makes a cellular process visible.

As to “Photoreceptor VVD (VIVID) from N. crassa (component of the FUN-LOV optogenetic switch) (from UniProt Q9C3Y6 1-186)”, the binding entry in assay [1] was “binds”; in assay [2], “no binding (only constant darkness (DD))”; in assay [3] it was “binds”.
